# Screening data

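Uptake of anthrax lethal toxin into cultured cells, read by FRET (460/530 nm ratio) and reported from the 460 nm channel; the cell line is not named here. Each compound was tested as a concentration series from about 0.0005 to 40 µM. The number is the fitted AC50 of the 460 nm signal alone; lower values mean a more potent effect. A falling signal goes with compounds filed as inhibitors or cytotoxic, a rising one with activators or fluorescent compounds (inferred from the filed classes).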

Values are in µM. Common to all entries: measured here: 460 nm channel. Part of the compounds only, not a random draw; the main read-out is not listed here. A potency from a partial, single-point or poor curve is only a rough figure. The first word of each remark tells which way the curve ran; it can be opposite to the aim of the assay.

With COc1ccc(-c2noc(CSc3nnc(-c4ccncc4)n3-c3ccc(F)cc3)n2)cc1OC the assay gave AC50 25.12 µM (rising, single point). Result for CC(=O)c1ccc(N2CCN(C(=O)c3ccc(Br)cc3)CC2)c(F)c1 was AC50 19.95 µM (falling, single point). Result for CCn1c(-c2ccc3[nH]c(C)c(C)c3c2)n[nH]c1=S was AC50 31.62 µM (falling, single point). For COC(=O)c1c(NC(=O)c2ccoc2C)sc2c1CCC2 the result was AC50 3.981 µM (falling, full curve, poor fit).

For Cc1nc(N2CCN(C(=O)CCC(=O)O)CC2)c2c(C)c(C)sc2n1 the result was AC50 0.1585 µM (rising, full curve, poor fit). With Cc1ccc(-n2c(Cc3cccs3)nnc2SCC(=O)OC(C)C)cc1 the assay gave AC50 0.03162 µM (rising, full curve). For CN(C)c1ccc(-c2ccc3ncnc(NC4CC4)c3c2)cc1 the result was AC50 25.12 µM (rising, single point). COc1cc2ccc(=O)oc2c(O)c1O read AC50 31.62 µM (rising, partial curve).

With O=C(COc1ccccc1)Nc1cccc(-c2nnc(-c3ccccc3)o2)c1 the assay gave AC50 7.943 µM (falling, partial curve). CNc1oc(-c2cccc3ccccc23)nc1C#N read AC50 25.12 µM (rising, single point). Result for COc1ccc(Nc2ncc3c(n2)CC(c2ccc(OC)cc2)CC3=O)cc1 (stereo not drawn) was AC50 3.981 µM (falling, single point). For CC1(C)C(=O)C(c2ccccc2)=C2CN3C(=O)N(CCc4ccccc4)C(=O)C3(Cc3ccc(C(F)(F)F)cc3)C=C21 (stereo not drawn) the result was AC50 10 µM (falling, partial curve).

For O=c1[nH]c2ccccc2nc1-c1cccs1 the result was AC50 10 µM (rising, partial curve). For CN1CCC(=C2c3ccccc3C=Cc3ccccc32)CC1 the result was AC50 12.59 µM (falling, partial curve). For Cc1cc(NC(=O)CSc2nnc(C3CC3)n2N)no1 the result was AC50 5.012 µM (rising, single point). COCC(=O)N(Cc1cc2cc(OC)ccc2[nH]c1=O)c1ccc(C)cc1 read AC50 12.59 µM (rising, partial curve, poor fit).

Result for CCOC(=O)c1cnc(-n2nc(C)cc2C)nc1NC1CCCCC1 was AC50 0.1 µM (falling, full curve). COc1ccc(CCNC(=O)CN2CCN(c3cccc(Cl)c3)CC2)cc1OC read AC50 25.12 µM (rising, single point). With COc1ccc(-c2cc(C(=O)N(C)Cc3ccccc3)no2)cc1OC the assay gave AC50 5.012 µM (rising, single point). COC(=O)[C@@]1(Cc2ccc(F)cc2)[C@H]2c3cc(C(=O)N4CCCC4)n(Cc4ccc(C)c(F)c4F)c3C[C@H]2CN1C(=O)c1ccccc1 gave AC50 25.12 µM (falling, single point).

COc1cc(NC(=O)c2cc(OC)c(OC)c(OC)c2)c(OC)cc1NC(=O)CN1CCCCC1 read AC50 31.62 µM (falling, single point). With CCOc1ccc2nc(NC(=O)CN3CCN(c4ccccn4)CC3)sc2c1 the assay gave AC50 0.05012 µM (falling, full curve). With Cn1c(=O)c2cc(NCc3ccccc3)nnc2n(C)c1=O the assay gave AC50 0.01995 µM (falling, full curve, poor fit). With COc1ccc(-c2nc3cnc(Nc4cccc(OC)c4)nc3n(C3CC3)c2=O)cc1 the assay gave AC50 5.012 µM (rising, partial curve).

With O=C(Oc1cccc2cccnc12)c1cccs1 the assay gave AC50 0.003162 µM (falling, full curve, poor fit). Result for COc1ccc(N2C(=O)CCC(C(=O)NCc3ccccn3)C2c2ccc(OC)c(OC)c2)cc1 (stereo not drawn) was AC50 15.85 µM (rising, single point). COc1cc(O)c2c(=O)cc(-c3ccccc3)oc2c1 read AC50 25.12 µM (falling, partial curve, poor fit).

The last 3 entries again:

Result for O=C(Oc1cccc2cccnc12)c1cccs1 was AC50 0.003162 µM (falling, full curve, poor fit).
Result for COc1ccc(N2C(=O)CCC(C(=O)NCc3ccccn3)C2c2ccc(OC)c(OC)c2)cc1 (stereo not drawn) was AC50 15.85 µM (rising, single point).
Result for COc1cc(O)c2c(=O)cc(-c3ccccc3)oc2c1 was AC50 25.12 µM (falling, partial curve, poor fit).

Source: PubChem BioAssay AID912 (NCATS, 2007).